This is an account of results in paper PMC12223475, “Two Key Ferredoxins for Nitrogen Fixation Have Different Specificities and Biophysical Properties” (Chemistry (Weinheim an Der Bergstrasse, Germany), 2025).

By UniProt entry, the sequences of proteins in these tests, tags left out. Residues count along the entry.
UniProt D5ARY7, residues 2-95: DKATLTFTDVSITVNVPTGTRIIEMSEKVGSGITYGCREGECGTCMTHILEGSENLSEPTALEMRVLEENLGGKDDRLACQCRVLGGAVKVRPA

Results are given in words; binding and its absence hold for the method and conditions named.

This assay concerns the target Rhodobacter capsulatus ferredoxin C (FdC), strep-tagged (R. capsulatus) (UniProt D5ARY7). Description: SEC; Superdex75 10/300 GL, low-salt buffer (50 mM Tris, 150 mM NaCl, 10% glycerol, pH 7.8), anaerobic; MW from a standard curve of LMW calibration mix; both purified.

As to “Rhodobacter capsulatus ferredoxin C (FdC), strep-tagged (from UniProt D5ARY7 2-95)”, the binding result is on record as “no binding”.
